From paper PMC10436584
For at least one entry, the source does not settle the construct or the ends of the probe. For some of these results: At least one verdict was read from the data and is not stated in words by the source.

Sequences of proteins named here, by UniProt entry; tags and fusion partners are left off. A change or cut given only in a name is not applied to a line headed by its entry.
UniProt P97875: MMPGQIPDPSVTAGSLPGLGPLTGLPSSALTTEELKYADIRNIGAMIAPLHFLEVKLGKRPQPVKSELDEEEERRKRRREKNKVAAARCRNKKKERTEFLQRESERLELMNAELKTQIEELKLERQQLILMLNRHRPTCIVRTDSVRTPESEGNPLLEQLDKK

How the values were obtained:
Experiment in all cases: EMSA
GST-AhR bHLH = details: 5 ug GST fusion protein, 25 C, 30 min, 5% nondenaturing gel at 4 C, recombinant protein, label: 32P (T4 kinase)
GST-Jdp2 = GST-Jdp2 (UniProt P97875); details: 5 ug GST fusion protein, 25 C, 30 min; 5% nondenaturing gel at 4 C; recombinant protein; protein details: GST; label: 32P (T4 kinase)
GST-Nrf2 = details: 5 ug GST fusion protein, 25 C, 30 min; 5% nondenaturing gel at 4 C; recombinant protein; protein details: GST; label: 32P (T4 kinase)

“CGGGCGGCAGCGTGTGTGTGCGCTCCCTT / TCAAAGGGAGCGCACACACACGCTGCCGC [AhR promoter DRE3 probe]”: binds (GST-AhR bHLH; with GST-Nrf2, AhR binding seemed to be increased, protein details: …); binds (GST-Jdp2); binds (GST-Nrf2).
“TCGGTGCCCCACGCGTGTCCCGGAGAG / AGCCTCTCCGGGACACGCGTGGGGCAC [AhR promoter DRE2 probe]”: binds (GST-Jdp2); binds (GST-Nrf2).
“TTTCCCACAGTGACTTTCCCAAGAAAGATG / TTCCATCTTTCTTGGGAAAGTCACTGTGGG [AhR promoter ARE1 probe]”: binds (GST-AhR bHLH; protein details: GST); binds (GST-Jdp2).
